Reference: patent US20050059087A1, “Antibodies directed to the deletion mutants of epidermal growth factor receptor and uses thereof” (priority 2003, published 2005)
Residue numbers refer to the chain shown, from its start. Results are given in words; binding and its absence hold for the method and conditions named. Some binding calls cover weakened binding; strength is not graded here.

B1: SC-EGFRvIII-XG1-139 (antibody, V domains shown)
VH: EVQVLESGGGLVQPGGSLRLSCAASGFTFSSYAMSWVRQAPGKGLEWVSAISGSGGSTNYADSVKGRFTISRDNSKNTLYLQMNSLRAEDTAVYYCAGSSGWSEYWGQGTLVTVSS
VL: DIQMTQSPSSLSASVGDRVTITCRASQGIRNNLAWYQQKPGKAPKRLIYAASNLQSGVPSRFTGSGSGTEFTLIVSSLQPEDFATYYCLQHHSYPLTSGGGTKVEIK
B2: AB-EGFRvIII-XG1-095 (antibody, V domains shown)
VH: QVQLQESGPFLVKPSQTLSLTCTVSGGSISSGGYYWSWIRQHPGKGLEWIGFIYYRGNTYYNPSLKSRVTISVDTSKNQFSLKLSSVTAADTAVYYCARDGYCSRTGCYGGWFDPWGQGTLVTVSP
VL: DIVMTQTPLSSPVTLGQPASISCRSSQSLIHTDGNIYLSWLQQRPGQPPRLLIYKISNRFSGVPDRFSGSGAGTDFTLKISRVEAEDVGVYYCMQGTQFPITFGQGTRLEIK
B3: SC-EGFRvIII-XG1-211 (antibody, V domains shown)
VH: QVQLVESGGGVVQPGRSLRLSCVASGFTLSSYGMHWVRQAPGKGLEWVAVTSYDGSKKDYADSAKGRFTISRDNSKNTLYLQMNSLRAEDTAVYYCVSEGYCSSSSCYKYYYYGMDVWGQGTTVTVSS
VL: DIVMTQSPLSLPVTPGEPASISCRSSQSLLYRNGNNYLDWYLQRPGQSPQLLIYLGSNRASGVPDRFSGSGSGTDFTLKISRVEAEDVGVYYCMQALQTPRTFGQGTKVEIK
B4: SC-EGFRvIII-XG1-250 (antibody, V domains shown)
VH: B1 VH with V2G, V4L, L11W, G16E, M83V, A88V
VL: DIQMTQSPSSLSASVGDSVTITCRTSQGIRKNLGWYQQKPGKAPKRLIYAASSLQSGVPSRFSGSGSGTEFTLTISRLQPEDFATYYCLQHHSYPLTFGGGTRVEIR

How the values were obtained:
[1] = biological target: EGFRvIII-rabbit Fc fusion protein (human; rabbit) (UniProt P00533); assay: Western blot, EGFRvIII rabbit Fc fusion protein, reduced
[2] = biological target: EGFRvIII-rabbit Fc fusion protein (human; rabbit) (UniProt P00533); assay: Western blots of purified protein and cell lysate
[3] = biological target: EGFRvIII-rabbit Fc fusion protein (human; rabbit) (UniProt P00533); assay: Western blot, EGFRvIII rabbit Fc fusion protein, native
[4] = biological target: EGFRvIII-rabbit Fc fusion protein (human; rabbit) (UniProt P00533); assay: Western blot, purified EGFRvIII

Binder	binding [1]	binding [2]	binding [3]	binding [4]
B1	binds	binds		
B2	binds	binds	binds	
B3	binds		binds	binds
B4	binds	binds	binds	
